From PubChem BioAssay AID2685 (National Center for Advancing Translational Sciences (NCATS), 2010)
Hit rate of the full screen: of about 320,000 compounds, about 2,100 (0.66%) were called active. The shares of active, inactive and inconclusive entries below differ from those in the screen. Calls follow the shape of the dose curve; as a rule, active = well fitted inhibition curve with a large enough effect in the signal ratio, with a control signal flat (not every such curve was filed as active); inconclusive = small, poorly fitted or top-dose-only effect, or effect the other way, or a change in a side signal; inactive = flat fitted curve, though single readings scatter; the % refers to the signal ratio. Potencies beside an inconclusive call are fits to weak or partial responses and may not hold up.

assay: qHTS Assay for Lipid Storage Modulators in Drosophila S3 Cells; conditions: BODIPY lipid droplet fluorescence, 18-24 h, cells fed with added oleic acid; lipid storage change, negative = inhibition: at 46.1 µM (top of the series) unless noted
In short: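 Drosophila S3 cells got compounds at several concentrations plus oleic acid (400 uM solution). Laser-scanning cytometry with 488 nm excitation read lipid droplets at 500-530 nm and cells at 575-640 nm. Percent activity was relative to 20 uM Triacsin C.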
% is scaled to controls: 0 for no effect and ±100 for the full control effect; potency is read from the fitted curve at half-maximal effect.

Lipid storage change, negative = inhibition, inconclusive:
Cc1ccc(C(=O)N(Cc2sccc2C)C2CCS(=O)(=O)C2)cc1 (centres undefined) 34.2%
O=C(COC(=O)CSc1ccc(F)cc1)NNC(=O)c1ccc([N+](=O)[O-])cc1 5.03%
O=C1c2ccccc2NC(c2ccc(-c3ccc(F)cc3)o2)N1O (centres undefined) 9.33%
O=C(O)C(Cc1c[nH]c2ccccc12)N1C(=O)c2ccccc2C1=O (centres undefined) -11.4%
Cc1cnc(C(=O)OC(C)C(=O)NCc2ccccc2)cn1 (centres undefined) 8.27%
COc1ccc(CCN2CC(C(=O)O)CC2=O)cc1 (centres undefined) -33.1%
O=C(O)c1ccc2c(c1)c1c3n2CCNC3CCC1 (centres undefined) 10.9%
CCC12CN3CC(CC)(CN(C1)C31C(=O)N(C)c3ccc(C)cc31)C2=O (centres undefined) -2.44%
Nc1nonc1N/N=C\c1ccccc1 14.8%
O=C(C1CC(c2ccccc2O)=NO1)N1CCCCC1 (centres undefined) 5.49%
Cc1ccc(-n2nc3c(SCCN4CCOCC4)nnc(C)c3c2C)cc1 28.2%
COc1ccc(NC(=O)CC(C(=O)O)N2CCCCC2)cc1 (centres undefined) -5.51%
CCN1C(=O)CC(Sc2ccccc2C(=O)O)C1=O (centres undefined) -173%
CC1CC2c3cccc(C(=O)O)c3C(=O)N2c2ccc(Cl)cc21 (centres undefined) -25.3%
COc1ccccc1N(Cc1cc2cccc(C)c2[nH]c1=O)C(=O)C(C)C 15.5%
COc1ccc(C(=O)NC(=S)NC2CCSC2=O)cc1 (centres undefined) 65.3%
Cc1cccc(/C(N)=N/OC(=O)COc2ccc(Cl)c(C)c2)c1 -11.8%
CCOC(=O)n1c(=O)[nH]c2ccc(Br)cc21 -9.39%
CC(C)=CC(=O)OCC(=O)Nc1ccc(F)cc1Cl 76.4%

Potency, inconclusive:
CCCCCCCC(=O)NC(Nc1ccccc1OC)C(Cl)(Cl)Cl (centres undefined) 0.116 µM [activator, full curve, poor fit]
O=C(CCN1CCOCC1)NNC(=O)Nc1cccc(Cl)c1 29.1 µM [activator, single point]
c1coc(-c2nc3nc4ccccc4nc3n2-c2ccc3c(c2)OCCO3)c1 1.16 µM [activator, single point]
Cc1cc(OCCCn2ccnc2)ccc1C(C)C 1.64 µM [activator, full curve]
CCC(Oc1ccccc1)C(=O)Nc1nc2ccccc2[nH]1 (centres undefined) 10.3 µM [activator, partial curve]
